Data from patent US6673768B1, “Transgenic animal models for cardiac hypertrophy and methods of use thereof (treating)” (Board of Regents, The University of Texas System, priority 1997, dated 2004).
At least one structure is not confirmed: it was looked up by name or label, or the drawing left a doubt.

Test system: neonatal rat cardiomyocytes
Experiment: AngII- and PE-induced hypertrophy of primary cardiomyocytes (anti-α-actinin staining, cell size and sarcomeric assembly)
Type: cell-based
Conditions: 72 hr, CsA 500 ng/ml

## C=CC[C@@H]1/C=C(\C)C[C@H](C)C[C@H](OC)[C@H]2O[C@@](O)(C(=O)C(=O)N3CCCC[C@H]3C(=O)O[C@H](/C(C)=C/[C@@H]3CC[C@@H](O)[C@H](OC)C3)[C@H](C)[C@@H](O)CC1=O)[C@H](C)C[C@@H]2OC [FK506]
AngII 10 nM
  hypertrophic response (cell size, sarcomeric assembly) to AngII in presence of inhibitor: completely abolished
PE 10 μM
  hypertrophic response (cell size, sarcomeric assembly) to PE in presence of inhibitor: dramatically reduced
